Screen size: about 390,000 compounds; about 820 (0.21%) were called active. Inconclusive results, whose numbers are uncertain, are shown with a selection of clear calls. Calls follow the shape of the dose curve; as a rule, active = well fitted inhibition curve with a large enough effect; inconclusive = small, poorly fitted or top-dose-only effect, or another doubt; inactive = no such curve, though single readings can be large or run the other way. Where the call is inconclusive, the potency comes from a doubtful curve fit.
Target: Histone acetyltransferase KAT2A (Homo sapiens) (UniProt Q92830)
Experiment: qHTS Assay for Inhibitors of GCN5L2
Conditions: GCN5L2 HAT assay, ThioGlo1 CoA-SH fluorescence; activity change, negative = inhibition: at 58.9 µM (top of the series) unless noted
Method in brief: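 Titration-based screen in which CoA formation is detected via maleimide probe ThioGlo1 (50uM) turning fluorescent on thiol reaction; substrates H3(1-25) 75uM and acetyl-CoA 70uM, GCN5L2 20nM, 20 min incubation at room temperature.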
% is scaled to controls: 0 for no effect and ±100 for the full control effect; potency is read from the fitted curve at half-maximal effect.

Amino acid sequences for entries named in this document (tags omitted).
UniProt Q92830, whole entry, looked up: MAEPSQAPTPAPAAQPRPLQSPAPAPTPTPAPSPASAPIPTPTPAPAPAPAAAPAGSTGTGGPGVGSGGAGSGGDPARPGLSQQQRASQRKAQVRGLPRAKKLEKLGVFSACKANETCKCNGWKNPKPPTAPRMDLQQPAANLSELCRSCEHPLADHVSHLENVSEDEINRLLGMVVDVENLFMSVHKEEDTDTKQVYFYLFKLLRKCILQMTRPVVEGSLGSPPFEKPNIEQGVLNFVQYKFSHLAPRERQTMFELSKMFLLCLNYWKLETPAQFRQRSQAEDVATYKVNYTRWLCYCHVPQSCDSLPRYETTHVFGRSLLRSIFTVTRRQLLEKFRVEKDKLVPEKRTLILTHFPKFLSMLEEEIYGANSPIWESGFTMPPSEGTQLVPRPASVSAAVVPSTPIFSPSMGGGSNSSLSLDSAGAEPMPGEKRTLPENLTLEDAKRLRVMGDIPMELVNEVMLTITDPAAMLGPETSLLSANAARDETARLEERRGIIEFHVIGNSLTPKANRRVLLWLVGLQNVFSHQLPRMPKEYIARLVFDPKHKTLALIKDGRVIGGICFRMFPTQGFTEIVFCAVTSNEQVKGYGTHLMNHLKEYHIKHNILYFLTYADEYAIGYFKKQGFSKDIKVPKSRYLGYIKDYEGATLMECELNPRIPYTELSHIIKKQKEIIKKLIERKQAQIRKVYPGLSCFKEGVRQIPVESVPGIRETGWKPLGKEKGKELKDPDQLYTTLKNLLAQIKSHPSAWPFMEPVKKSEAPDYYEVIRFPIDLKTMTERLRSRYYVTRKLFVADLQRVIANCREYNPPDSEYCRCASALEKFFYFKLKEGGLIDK

SMILES | Potency | activity change, negative = inhibition
O=C(/C=C/c1ccccc1)NCCc1ccccc1 | inconclusive: 39.8 µM [inhibitor, single point] | 
NS(=O)(=O)c1ccc(CCNC(=O)c2ccc3c(c2)N(Cc2ccccc2)CCS3)cc1 | inconclusive: 31.6 µM [inhibitor, single point] | 
CCc1ccc(CN(Cc2cn[nH]c2-c2ccc(OC)cc2)C(=O)Nc2cc(Cl)ccc2OC)cc1 | inactive | 
COC(=O)c1c(NC(=O)CCCOc2cccc(C)c2)sc2c1C(C(=O)OC)CC2 (centres undefined) | inconclusive: 39.8 µM [inhibitor, single point] | 
CCSC1=NC(C)(C)C=C(/C=C/c2ccc(Cl)cc2Cl)N1 |  | inconclusive: -88.1% [inhibitor] [at 0.501 µM]
CCC(CC)NC(=O)c1cc2c(C)nn(Cc3ccccc3Cl)c2s1 | inactive | 
Cc1cccn2c(=O)c3cc(S(=O)(=O)c4ccc(F)cc4)c(=N)n(Cc4ccco4)c3nc12 | inactive | 
CCc1c(C)nc(N)n2c(SCC(=O)Nc3ccccc3)nnc12 | inconclusive: 0.708 µM [inhibitor, partial curve, poor fit] | 
CCCNC(=S)Nc1ccc2nc(-c3ccccn3)c(-c3ccccn3)nc2c1 | inconclusive: 25.1 µM [inhibitor, single point] | 
CCN(CC)c1ccc(NC(=O)CN2CCN(CC(=O)Nc3ccc(F)cc3)CC2)cc1 | inactive | 
CC1CCCN(C(=S)NCCc2ccccc2)C1 (centres undefined) | inconclusive: 0.501 µM [inhibitor, partial curve, poor fit] | 
O=C(Nc1ncc2c(n1)-c1ccccc1CC2)c1cccc(Cl)c1 | active: 3.16 µM | 
COc1cccc(C(=O)CN(C(=O)c2ccc(Cl)c(Cl)c2)N2C(=O)C3CCCCC3C2=O)c1 (centres undefined) | inconclusive: 35.5 µM [inhibitor, single point] | 
C/C(=N\Nc1ccc(Cl)c(C(=O)O)c1)c1ccc[nH]1 | inactive | 
Cc1nn(-c2ccccc2)c(C)c1NC(=O)COC(=O)[C@@H](NC(=O)c1ccccc1)C(C)C | inconclusive: 0.501 µM [inhibitor, partial curve, poor fit] | 
Cc1ccc(-c2[nH]c(-c3ccc(C(=O)O)cc3)nc2-c2ccccc2)cc1 | inconclusive: 31.6 µM [inhibitor, single point] | 
Cc1ccc(SCc2cc(=O)c3c(=O)n(-c4ccccc4)[nH]c3[nH]2)cc1 | inconclusive: 22.4 µM [inhibitor, partial curve] | 
Cc1ccc(-c2nnn(CC(=O)N(Cc3ccc(F)cc3)C(C(=O)NC3CCCC3)c3ccncc3)n2)o1 (centres undefined) | inactive | 
CC(=O)NCCNc1ncnc2ccc(-c3cccc(NS(C)(=O)=O)c3)cc12 | inconclusive: 31.6 µM [inhibitor, partial curve] | 
Cc1ccc(C2CC2c2n[nH]c(=S)n2-c2cccc(C)c2)cc1 (centres undefined) | inactive | 
N#Cc1c(-c2ccccc2)nc(SCc2cccc(Cl)c2)[nH]c1=O | inconclusive: 15.8 µM [inhibitor, partial curve] | 
O=C(O)c1c2c(nc3ccccc13)/C(=C/c1ccc(O)cc1)CC2 | inconclusive: 31.6 µM [inhibitor, single point] | 
O=C(NCCCc1ccncc1)C1CCC(=O)N(Cc2cccc(C(F)(F)F)c2)C1 (centres undefined) | inconclusive: 39.8 µM [inhibitor, single point] | 

SMILES | Potency | activity change, negative = inhibition
CC(=O)N1CCc2c(sc3nc(SCC(C)C)n(-c4ccc(F)c(Cl)c4)c(=O)c23)C1 | inactive | 
COc1cc2[nH]c3ccccc3c2cc1C | inconclusive: 31.6 µM [inhibitor, partial curve] | 
CC(C)c1ccccc1NC(=O)COC(=O)/C=C/c1cccc([N+](=O)[O-])c1 | inactive | 
Cc1cccc(C)c1NC(=O)N1CCC(n2cnc3ccccc32)CC1 | inconclusive: 3.16 µM [inhibitor, partial curve] | 
CCCc1nc2oc3c(Cl)ncnc3c2c2c1CCCC2 | inconclusive: 0.562 µM [inhibitor, single point] | 
N[C@@H](Cc1cc(-c2ccc(Cl)cc2Cl)cc(CP(=O)(O)O)c1O)C(=O)O | inconclusive: 0.794 µM [inhibitor, partial curve, poor fit] | 
CC[n+]1ccc2cc(OC)c(OC)cc2c1Cc1ccc(OC)c(OC)c1 | inconclusive: 39.8 µM [inhibitor, single point] | 
CN(CC(=O)N1CCN(Cc2ccccc2)CC1)C(=O)Cc1cccc2ccccc12 | inconclusive: 39.8 µM [inhibitor, single point] | 
O=C(CCN1C(=O)C2CC=CCC2C1=O)Nc1nccs1 (centres undefined) | inconclusive: 0.112 µM [inhibitor, full curve, poor fit] | 
COc1ccc(CCNC(=O)c2cc(-c3ccc(Cl)c(Cl)c3)oc2C)cc1 | inconclusive: 39.8 µM [inhibitor, single point] | 
COC(=O)C1=C(C)N(Cc2ccccc2)C(=O)/C1=C\c1ccco1 | inactive | 
COC(C(=O)Nc1ccnn1C1CCN(Cc2ccc(Cl)s2)CC1)c1ccccc1 (centres undefined) | inactive | 
O=[N+]([O-])c1cccc2c(S(=O)(=O)N3CCOCC3)cccc12 | inconclusive: 39.8 µM [inhibitor, single point] | 
Cn1c(N)c(C(=O)COC(=O)C2=NNC(=O)CC2)c(=O)n(C)c1=O | inconclusive: 7.08 µM [inhibitor, single point] | 
Cc1cc(C)nc(SSc2nc(C)cc(C)n2)n1 | inconclusive: 28.2 µM [inhibitor, partial curve] | 
O=c1oc2c(CN3CCN(CCO)CC3)c(O)ccc2cc1-c1ccccc1 | active: 31.6 µM | 
CCSc1ncc(CO)c(N)n1 | inconclusive: 0.794 µM [inhibitor, single point] | 
C(=C\c1ccco1)/C1=NN(c2ccccc2)C(c2ccco2)C1 (centres undefined) | inconclusive: 28.2 µM [inhibitor, single point] | 
CCOc1ccccc1CNC(=O)C1CCN(S(=O)(=O)c2ccc3c(ccn3C)c2)CC1 | inactive | 
CCCC(=O)Nc1ccc(S(=O)(=O)Nc2cc(OC)nc(OC)n2)cc1 | inconclusive: 0.112 µM [inhibitor, full curve, poor fit] | 
CC(C)CCOc1ccc(C(=O)NCC(c2ccco2)N(C)C)cc1 (centres undefined) | inactive | 
C/C(=N\OC(=O)c1ccccc1)c1cc(-c2ccc(Cl)cc2)no1 | inconclusive: 8.91 µM [inhibitor, single point] | 
CCOC(=O)c1sc(N2C(=O)C(O)=C(C(=O)c3ccco3)C2c2cccc([N+](=O)[O-])c2)nc1C (centres undefined) | inconclusive: 39.8 µM [inhibitor, single point] | 

Among those listed so far, these have a nitro group on carbon.
SMILES | Potency | activity change, negative = inhibition
CC(C)c1ccccc1NC(=O)COC(=O)/C=C/c1cccc([N+](=O)[O-])c1 | inactive | 
O=[N+]([O-])c1cccc2c(S(=O)(=O)N3CCOCC3)cccc12 | inconclusive: 39.8 µM [inhibitor, single point] | 
CCOC(=O)c1sc(N2C(=O)C(O)=C(C(=O)c3ccco3)C2c2cccc([N+](=O)[O-])c2)nc1C (centres undefined) | inconclusive: 39.8 µM [inhibitor, single point] | 

(further entries)

SMILES | Potency | activity change, negative = inhibition
CN(C)c1ccc(-c2nc3ccccn3c2/N=C/c2ccc(Br)cc2)cc1 | inconclusive: 25.1 µM [inhibitor, single point] | 
COc1ccc(N2CCN(C(=O)c3cc4c(s3)-c3ccccc3OC4)CC2)cc1 | inconclusive: 2.82 µM [inhibitor, partial curve, poor fit] | 
O=C(Cn1cnc2ccccc21)N/N=C/C(Br)=C/c1ccccc1 | inconclusive: 7.08 µM [inhibitor, single point] | 
CCOc1ccccc1NC(=O)CSc1ccc(-c2sc(C)nc2C)nn1 | inconclusive: 39.8 µM [inhibitor, single point] | 
COc1cccc(C2CC(=O)N3CN(c4cccc(Cl)c4C)CSC3=C2C#N)c1OC (centres undefined) | active: 22.4 µM | 
NNC(=S)Nc1ccc(S(=O)(=O)N2CCOCC2)cc1 | inconclusive: 5.62 µM [inhibitor, single point] | 
CS(=O)(=O)N(Cc1ccco1)CC(O)Cn1c2ccccc2c2ccccc21 (centres undefined) | inconclusive: 14.1 µM [inhibitor, partial curve, poor fit] | 
CCC1(C)Cc2ccccc2-c2nc3n(c(=O)c21)CC(C(=O)O)S3 (centres undefined) | inactive | 
O=C(CN1CCN(S(=O)(=O)c2ccccc2)CC1)Nc1ccc([N+](=O)[O-])cc1 | inactive | 
O=C(COC(=O)C1CCC(=O)N1)Nc1ccccc1Br (centres undefined) | inactive | 
OC1COC(OCc2ccccc2)C(O)C1O (centres undefined) | inconclusive: 0.562 µM [inhibitor, full curve, poor fit] | 
CC(C)C[C@H](NC(=O)c1[nH]cnc1C(=O)N[C@@H](C)c1ccccc1)C(=O)OCc1ccccc1 | inconclusive: 2.51 µM [inhibitor, full curve] | 
COC(=O)c1sc(NC(=O)c2cc(-c3ccccc3)nc3ccccc23)c(C#N)c1C | inconclusive: 12.6 µM [inhibitor, partial curve] | 
CCOC(=O)c1sc2nc(N3CCOCC3)c3c(c2c1N)CCC3 | inconclusive: 25.1 µM [inhibitor, single point] | 
COc1c(C=O)c(O)cc2c1C(=O)c1ccccc1C2=O | inconclusive: 28.2 µM [inhibitor, single point] | 
O=c1c(/C=N\NS(=O)(=O)c2ccccc2)coc2ccc(Cl)cc12 | inconclusive: 5.62 µM [inhibitor, full curve] | 
CC(C)c1c(C(=O)N/N=C/c2ccc(OCc3ccc(F)cc3)cc2)nnn1-c1nonc1N | inactive | 
CCOC(=O)c1cnc(Cc2ccccc2)[nH]c1=O | inactive | 
CCOc1ccccc1CN1CCC(O)CC1 | inactive | 
CSc1nc2ccccc2cc1/C=C(\C#N)c1cccc(Cl)c1 | inconclusive: 5.62 µM [inhibitor, single point] | 
Nc1cc(Nc2ccc(Br)cc2)nc(N)n1 | inactive | 
Cc1ccc2c(c1)C(O)(CC(=O)/C=C/C=C/c1ccccc1)C(=O)N2 (centres undefined) | inactive | 
Cc1cccc(OCCCSc2nc(-c3ccc(C(C)(C)C)cc3)nc3cc(=O)[nH]n23)c1C | inconclusive: 31.6 µM [inhibitor, single point] | 

Fetched one by one from the entries so far (two):
SMILES | Potency | activity change, negative = inhibition
O=c1c(/C=N\NS(=O)(=O)c2ccccc2)coc2ccc(Cl)cc12 | inconclusive: 5.62 µM [inhibitor, full curve] | 
Cc1ccc2c(c1)C(O)(CC(=O)/C=C/C=C/c1ccccc1)C(=O)N2 (centres undefined) | inactive | 
